## Cleaved PARP in drug-treated melanoma cells

Data from the primary screen of doi:10.1371/journal.pone.0140310, rounded.

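Human melanoma cells were exposed to a pair of drugs for 72 h in 1,536-well plates and read by automated microscopy after fixing and staining. The read-out is the fraction of cleaved-PARP-positive nuclei, in % of that fraction in the DMSO control; 200 means twice the control level of this apoptosis marker. Every drug was used at one fixed concentration, the higher of two screened. The file gives one value for each pair and line, without errors, so small differences may be noise. The marker varies much from line to line, for technical or biological reasons.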
An unselected part of the screen is shown.
A dash means that no value is listed here.

Drugs:
T0901317: O=S(=O)(c1ccccc1)N(CC(F)(F)F)c1ccc(C(O)(C(F)(F)F)C(F)(F)F)cc1 at 7000 nM
PF-562271: CN(c1ncccc1CNc1nc(Nc2ccc3c(c2)CC(=O)N3)ncc1C(F)(F)F)S(C)(=O)=O at 400 nM
TCS401: O=C(O)C(=O)Nc1sc2c(c1C(=O)O)CCNC2 at 8330 nM
fludarabine: Nc1nc(F)nc2c1ncn2[C@@H]1O[C@H](CO)[C@@H](O)[C@@H]1O at 1000 nM
enzastaurin: Cn1cc(C2=C(c3cn(C4CCN(Cc5ccccn5)CC4)c4ccccc34)C(=O)NC2=O)c2ccccc21 at 4000 nM
fingolimod: CCCCCCCCc1ccc(CCC(N)(CO)CO)cc1 at 10000 nM
temozolomide: Cn1nnc2c(C(N)=O)ncn2c1=O at 10000 nM
CX-4945: O=C(O)c1ccc2c(c1)nc(Nc1cccc(Cl)c1)c1ccncc12 at 2000 nM
lestaurtinib: C[C@]12O[C@H](C[C@]1(O)CO)n1c3ccccc3c3c4c(c5c6ccccc6n2c5c31)CNC4=O at 20 nM
dovitinib: CN1CCN(c2ccc3nc(-c4c(N)c5c(F)cccc5[nH]c4=O)[nH]c3c2)CC1 at 500 nM
vorinostat: O=C(CCCCCCC(=O)Nc1ccccc1)NO at 400 nM
tamatinib: COc1cc(Nc2ncc(F)c(Nc3ccc4c(n3)NC(=O)C(C)(C)O4)n2)cc(OC)c1OC at 2000 nM

Combination	UACC-62	WM3526	UACC-257	501mel	WM1745	COLO 829	IST-MEL1	MeWo	COLO 800	IPC-298	C32	WM3619	WM115	WM1716	RVH-421
fingolimod + PF-562271	298	637	281	-	1630	280	568	282	123	193	937	4800	4090	85.9	242
PF-562271 + lestaurtinib	205	154	52.8	-	132	173	169	58.3	54.7	171	146	126	226	105	106
dovitinib + TCS401	75.2	161	40.2	74.5	-	267	85.2	207	54.4	126	92.1	121	118	273	167
T0901317 + fingolimod	278	301	49.3	11500	-	302	1790	145	290	181	539	5190	6860	142	630
T0901317 + PF-562271	322	66.9	64.0	232	-	123	177	140	33.1	155	143	123	183	188	186
enzastaurin + T0901317	535	60.0	43.3	99.1	-	128	161	167	141	54.6	89.1	85.7	23.4	256	52.6
lestaurtinib + enzastaurin	230	329	42.3	-	195	252	242	110	85.5	61.3	90.1	94.7	265	35.4	322
vorinostat + fingolimod	388	4840	78.8	-	2940	57.7	2630	677	499	508	1010	5420	1040	884	374
vorinostat + temozolomide	185	64.3	286	-	85.4	51.0	62.2	235	201	44.7	251	152	47.0	1080	172
tamatinib + vorinostat	173	175	53.0	-	210	168	149	140	136	130	380	158	215	52.9	74.6
dovitinib + enzastaurin	193	291	107	-	341	108	216	222	141	177	191	123	87.1	27.5	192
enzastaurin + CX-4945	357	297	179	-	246	189	390	120	77.0	84.4	328	99.2	193	169	109
dovitinib + fingolimod	105	2350	335	-	1460	481	699	837	579	156	373	1620	1310	83.6	1140
tamatinib + TCS401	44.7	174	39.9	55.9	231	98.4	71.7	29.5	95.3	45.7	92.7	131	55.4	480	67.3
enzastaurin + PF-562271	386	298	96.0	-	162	259	85.1	125	170	129	346	104	326	583	112
lestaurtinib + T0901317	126	290	73.3	136	-	99.3	142	47.0	31.3	165	80.6	80.4	166	35.1	138
CX-4945 + vorinostat	207	374	118	-	92.4	373	56.8	114	228	332	358	159	54.6	326	206
T0901317 + temozolomide	71.0	105	68.3	164	118	105	69.6	63.0	86.4	94.1	97.9	94.1	98.5	97.8	51.6
dovitinib + tamatinib	131	212	90.7	-	292	184	315	183	423	138	80.8	142	149	182	146
T0901317 + vorinostat	217	97.7	59.4	111	265	71.4	66.3	26.7	108	101	100	144	114	57.0	68.9
tamatinib + fingolimod	174	8690	410	-	1760	354	1810	2120	315	71.8	3340	14400	2310	9040	670
lestaurtinib + dovitinib	157	314	63.0	-	138	165	95.5	538	271	113	127	173	602	93.4	202
dovitinib + PF-562271	178	183	109	-	429	69.5	243	341	120	808	342	113	279	261	145
vorinostat + TCS401	133	67.2	30.5	73.4	127	226	55.3	39.8	200	55.2	96.5	134	165	74.0	61.3
fludarabine + temozolomide	115	2700	10400	-	93.1	149	103	95.5	57.8	84.1	147	89.3	38.8	395	78.8
fingolimod + CX-4945	328	2230	205	-	685	470	1580	339	255	110	582	4580	6000	1070	1480
tamatinib + PF-562271	211	181	80.5	-	298	190	124	112	419	165	233	222	115	517	103
fludarabine + lestaurtinib	210	1110	5150	-	130	55.2	81.6	94.6	45.0	105	32.6	172	190	50.0	115
vorinostat + PF-562271	207	127	102	-	102	266	118	103	88.0	88.0	114	112	182	250	104
dovitinib + fludarabine	146	2330	5480	-	137	92.9	358	343	63.4	125	42.7	160	295	65.4	111
CX-4945 + dovitinib	172	844	73.6	-	186	533	140	601	167	150	206	131	519	82.5	243
temozolomide + PF-562271	235	69.8	182	-	118	59.3	117	80.5	80.0	85.4	186	128	361	1160	268

For reference, 3 entries once more:

Combination	UACC-62	WM3526	UACC-257	501mel	WM1745	COLO 829	IST-MEL1	MeWo	COLO 800	IPC-298	C32	WM3619	WM115	WM1716	RVH-421
vorinostat + PF-562271	207	127	102	-	102	266	118	103	88.0	88.0	114	112	182	250	104
CX-4945 + vorinostat	207	374	118	-	92.4	373	56.8	114	228	332	358	159	54.6	326	206
CX-4945 + dovitinib	172	844	73.6	-	186	533	140	601	167	150	206	131	519	82.5	243